{"source": "patent US20040120926A1", "about": "“Reactive oxygen metabolite inhibitors for use in compositions and methods of treatment” (priority 1999, published 2004)", "test_system": "elutriated MO (monocytes/macrophages)", "experiment": "Chemiluminescence assay of spontaneous isoluminol-enhanced extracellular superoxide anion generation in elutriated MO", "type": "cell-based, human", "details": "ranitidine at concentrations equimolar to histamine (50 μM)", "protocol": "Peripheral venous blood was obtained as freshly prepared leukopacks from healthy blood donors at the Blood Centre, Sahlgren's Hospital, Goteborg, Sweden, to study the activation characteristics of cytotoxic lymphocytes in the presence and absence of MO, and ROM inhibitors. The blood (65 ml) was mixed with 92.5 ml Iscove's medium, 35 ml 6% Dextran (Kabi Pharmacia, Stockholm, Sweden) and 7.5 ml acid citrate dextrose (ACD) (Baxter, Deerfield, Ill.). After incubation for 15 minutes at room temperature, the supernatant was carefully layered onto Ficoll-Hypaque (Lymphoprep, Myegaard, Norway). Mononuclear cells (MNC) were collected at the interface after centrifugation at 380 g for 15 minutes at room temperature, washed twice in PBS and resuspended in Iscove's medium supplemented with 10% human AB+serum. During all further separation of cells, the cell suspensions were kept in siliconized test tubes (Vacuette, Greiner, Stockholm). […]\nTo assess whether DPI and histamine inhibited the spontaneous release of ROM from MO, a chemiluminescence assay was performed that specifically quantified extracellular ROM (superoxide anion). The spontaneous isoluminol-enhanced extracellular generation of superoxide anion in elutriated MO was measured using the assay described in Hellstrand, K., et al., J Immunol, 153:4940-4947 (1994) and in Lundqvist & Dahlgren, Free Radic. […]", "note": "For at least one compound, name, drawing or mass did not settle the structure."}
{"smiles": "CNC(=C[N+](=O)[O-])NCCSCc1ccc(CN(C)C)o1", "note": "[ranitidine]", "values": [{"measurement": "antagonism of the histamine effect on extracellular superoxide anion", "result": "completely antagonized"}]}
